Measurements from PubChem BioAssay AID1347076 (National Center for Advancing Translational Sciences (NCATS), 2019).
Hit rate of the full screen: of about 400,000 compounds, about 13,000 (3.2%) were called active. This list was built around the results that the source calls inconclusive (neither active nor inactive); the mix of calls is not that of the screen. Calls come from the whole dose curve; as a rule, active = well fitted cell-killing curve with a large enough effect; inconclusive = small, poorly fitted or top-dose-only effect, or effect the other way; inactive = flat fitted curve, though single readings scatter. Where the call is inconclusive, the potency comes from a doubtful curve fit.

Assay: qHTS assay for MDR1-selective chemotherapeutics: Primary screen using the drug-selected MDR subline cells KB-V1; note: nearly all actives have a fitted effect of over 60% in size
Details: KB-V1 MDR cells viability, CellTiter-Glo, 72 h; activity change, negative = cytotoxicity: at 46.1 µM (top of the series)
Procedure, shortened: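 qHTS viability screen in drug-selected KB-V1 MDR cells: 72 h compound treatment at 37 degrees C, ATP luminescence end point.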
% is set by controls: 0 for no effect and ±100 for the full control effect; potency is the fitted concentration of half-maximal effect.

Row | SMILES | Potency | activity change, negative = cytotoxicity
1 | Cn1cc(CC(=O)N2CCN(c3ccc(Cl)cc3)CC2)c2ccccc21 | inconclusive: 9.2 µM [cytotoxic, partial curve] | 
2 | CCCN(CCC)C(=O)CSc1nc2ccccc2c(=O)n1CC1COc2ccccc2O1 (stereo not drawn) | active: 20.6 µM | 
3 | CCOc1ccc(C(=O)NC2CCN(CC(=O)NCc3cccs3)CC2)cc1 | inconclusive: 20.6 µM [cytotoxic, single point] | 
4 | COc1ccc(N2C(=O)S[C@@H]3CS(=O)(=O)C[C@@H]32)cc1 | inconclusive: 29.1 µM [rising, single point] | 
5 | O=C(c1cn(Cc2ccccc2)nc1-c1ccccc1)N1CCN(c2ccccn2)CC1 | inconclusive: 3.26 µM [cytotoxic, partial curve, poor fit] | 
6 | CC(=O)Nc1cccc(NC(=O)CSc2nnc3ccccn23)c1 | inactive | 
7 | CC1(C)Cc2cccc(Oc3ccc(S(=O)(=O)N4CCCC4)cn3)c2O1 | inconclusive: 25.9 µM [cytotoxic, partial curve] | 
8 | O=C(CSC1CC(=O)N(CCc2ccccc2)C1=O)Nc1cccc(Cl)c1 (stereo not drawn) | inconclusive: 16.4 µM [rising, partial curve, poor fit] | 
9 | COc1cc(/C=C2\SC(=O)N(CCNC(=O)c3sc4cc(F)ccc4c3Cl)C2=O)cc(OC)c1OC | inconclusive: 0.461 µM [cytotoxic, full curve] | 
10 | CCOC(=O)N1CCN(C(=O)C2CCN(C(=O)c3ccccc3C)CC2)CC1 | inconclusive: 29.1 µM [cytotoxic, single point] | 
11 | Cc1nn2c(=O)cc(CSCC(=O)Nc3ccccc3Cl)nc2s1 | inactive | 
12 | COc1ccc(C(=O)Nc2ccc(-c3nc4ccccc4[nH]3)cc2)cc1OC | inconclusive: 5.8 µM [rising, single point] | 
13 | CCc1noc(C)c1C(=O)N1CCCSC1=Nc1ccccc1Cl |  | inconclusive: -41.2%
14 | Cc1cccc(OCCSCc2nc3ccccc3[nH]2)c1 | inconclusive: 29.1 µM [cytotoxic, partial curve, poor fit] | 
15 | CCn1cc(C(=O)NCC(OC)OC)c(=O)c2cc(S(=O)(=O)N3CCCC3)ccc21 | inactive | 
16 | CC(C)(C)n1nnnc1C(c1ccccc1)N1CCN(C(=O)c2ccco2)CC1 (stereo not drawn) | inconclusive: 10.3 µM [cytotoxic, partial curve] | 
17 | N#Cc1c(N)nc2c(c1-c1cccnc1)CCCCC2 | inconclusive: 18.4 µM [cytotoxic, single point] | 
18 | O=S(=O)(c1ccc(Br)cc1)N1CCN(c2cc(-c3ccccc3)nc3ncnn23)CC1 | active: 13 µM | 
19 | COc1ccc(N2CCN(C(=O)c3cccn4c(=O)c5ccccc5nc34)CC2)cc1 | inconclusive: 25.9 µM [cytotoxic, single point] | 
20 | CN(C)CCNS(=O)(=O)c1ccc2c3c(cccc13)C(=O)N2 | inactive | 
21 | COc1cc2c(=O)c(S(=O)(=O)c3ccc(F)cc3)cn(Cc3ccccc3C)c2cc1OC | inactive | 
22 | O=C(NCc1cccs1)C(=O)c1cn(CC(=O)N2CCCC2)c2ccccc12 | inconclusive: 7.31 µM [cytotoxic, partial curve] | 
23 | COc1ccc(N2CCN(C(=O)CNC(=O)c3nn(-c4ccc(OC)cc4)c(=O)c4ccccc34)CC2)cc1 |  | inconclusive: -48.1% [cytotoxic]

Row | SMILES | Potency | activity change, negative = cytotoxicity
24 | O=C(CCC1CCCCC1)Nc1c2c(nn1-c1ccc(F)cc1)CS(=O)(=O)C2 | inconclusive: 18.4 µM [cytotoxic, single point] | 
25 | CC(C)Cn1nc(C(=O)NCc2ccccc2CN2CCCC2)c2ccccc2c1=O | active: 5.8 µM | 
26 | NC(=O)C1=C[C@@H](c2ccccc2)C[C@@H](OCCCCO)O1 | inconclusive: 20.6 µM [rising, partial curve, poor fit] | 
27 | COc1cc(OC)c(OC)cc1CNCCSc1nnnn1-c1ccccc1 | inactive | 
28 | c1ccc2c(C(c3nnnn3-c3ccc4c(c3)OCCO4)N3CCCCC3)ccnc2c1 (stereo not drawn) | inactive | 
29 | Cc1ccc(CNC(=O)c2ccc(S(=O)(=O)N(C)C)cc2)n1C | inconclusive: 18.4 µM [rising, single point] | 
30 | COc1ccc(/C=N/NC(=O)c2cc(C)oc2C)cc1OCc1ccccc1 | inconclusive: 6.51 µM [cytotoxic, single point] | 
31 | CC(=O)Nc1cccc(-c2csc(C(C)(O)c3ccccc3)n2)c1 (stereo not drawn) | inconclusive: 20.6 µM [cytotoxic, single point] | 
32 | Cn1cc(Cl)c(C(=O)N/N=C/c2ccc(OS(=O)(=O)c3ccccc3)cc2)n1 |  | inconclusive: -9.57%
33 | Cc1ccc(CN(c2ccc(C(=O)Nc3ccc4c(c3)OCO4)cc2)S(C)(=O)=O)cc1 | active: 6.51 µM | 
34 | CCOc1ccccc1OCC(=O)Nc1cc(S(=O)(=O)N2CCCCC2)ccc1N1CCN(CC)CC1 | inconclusive: 2.59 µM [cytotoxic, partial curve, poor fit] | 
35 | CC1CCN(c2nnc(NC(=O)Cn3c(=O)oc4ccccc43)s2)CC1 | inconclusive: 29.1 µM [rising, single point] | 
36 | O=C(Nc1ccc(Cl)cc1F)c1oc(=O)c2ccccc2c1-c1ccccc1 | inconclusive: 16.4 µM [cytotoxic, partial curve, poor fit] | 
37 | Cc1cc(NC(=O)CN2C(=O)NC(CCc3ccccc3)C2=O)no1 (stereo not drawn) | inconclusive: 20.6 µM [rising, single point] | 
38 | CC(C)Cn1c(N)c(C(=O)COC(=O)c2ccccc2F)c(=O)n(C)c1=O | inactive | 
39 | COc1cccc(Cn2cnc3c([N+](=O)[O-])c(C)c(C)cc32)c1 | inconclusive: 13 µM [cytotoxic, partial curve] | 
40 | C=CCN(CC=C)CC(=O)Nn1c(C)ccc1C | inactive | 
41 | O=C(CCCc1nc(-c2ccc(Cl)cc2)no1)NCC1CCCO1 (stereo not drawn) | active: 13 µM | 
42 | Cn1c(=O)c2[nH]c(CCc3ccncc3)nc2n(C)c1=O | inconclusive: 29.1 µM [rising, single point] | 
43 | COCCNC(=O)C(=O)N/N=C/c1cccs1 | inconclusive: 32.6 µM [rising, single point] | 
44 | O=C(Nc1cc(S(=O)(=O)N2CCOCC2)ccc1N1CCCCC1)c1ccccc1 | active: 5.17 µM | 
45 | O=C(/C=C/c1ccco1)Nc1ccc(Oc2ccc(Cl)cc2)cc1 | inconclusive: 3.66 µM [cytotoxic, full curve] | 
46 | CCOc1ccccc1NC(=O)CSc1nc2c(c(=O)[nH]1)CCC2 | inactive | 

From no. 6 to 8, copied from above:
Row | SMILES | Potency | activity change, negative = cytotoxicity
6 | CC(=O)Nc1cccc(NC(=O)CSc2nnc3ccccn23)c1 | inactive | 
7 | CC1(C)Cc2cccc(Oc3ccc(S(=O)(=O)N4CCCC4)cn3)c2O1 | inconclusive: 25.9 µM [cytotoxic, partial curve] | 
8 | O=C(CSC1CC(=O)N(CCc2ccccc2)C1=O)Nc1cccc(Cl)c1 (stereo not drawn) | inconclusive: 16.4 µM [rising, partial curve, poor fit] | 

Next part.

Row | SMILES | Potency | activity change, negative = cytotoxicity
47 | COc1ccc(-c2cc3c(o2)CCCC3OCCN2CCOCC2)cc1 (stereo not drawn) | inconclusive: 6.51 µM [cytotoxic, partial curve] | 
48 | CC(C)CN(C(=O)C1=NN(c2ccccc2)C(=O)CC1)c1c(N)n(Cc2ccccc2)c(=O)[nH]c1=O | inconclusive: 29.1 µM [rising, single point] | 
49 | COC(=O)C(Cc1ccccc1)NC(=O)c1ccc(NS(=O)(=O)c2ccc3[nH]c(=O)[nH]c3c2)cc1 (stereo not drawn) | inconclusive: 32.6 µM [rising, partial curve, poor fit] | 
50 | CC(=O)N1CCN(c2ccccc2NC(=O)c2ccc(C#N)cc2F)CC1 | inconclusive: 18.4 µM [cytotoxic, single point] | 
51 | Nc1[nH]c(C(=O)c2ccccc2)c(-c2ccc(Cl)cc2)c1C(=O)NCc1ccccc1 | inactive | 
52 | O=C1C2C3C=CC(C4CC34)C2C(=O)N1/N=C/c1ccc([N+](=O)[O-])o1 (stereo not drawn) | inconclusive: 16.4 µM [cytotoxic, single point] | 
53 | CN(C)c1oc(-c2ccccc2Cl)nc1C#N | inconclusive: 20.6 µM [cytotoxic, single point] | 
54 | COc1ccc(NC(=O)c2ccc3ccccc3c2)cc1NS(=O)(=O)c1ccc(F)cc1 | active: 20.6 µM | 
55 | O=C(NCC1CC1)C1(C(F)(F)F)C/C(=C\Cc2ccccc2)CCCO1 (stereo not drawn) | inactive | 
56 | C#CCOc1ccc(Br)cc1/C=N/O | inactive | 
57 | O=C1CSC(=S)N1/N=C/c1ccc(O)c([N+](=O)[O-])c1 | inconclusive: 20.6 µM [cytotoxic, single point] | 
58 | COc1cccc(OCc2nn[nH]n2)c1 | inconclusive: 29.1 µM [rising, single point] | 
59 | Cc1oc2cc(O)cc(O)c2c(=O)c1-c1ccc2c(c1)OCCCO2 | inconclusive: 5.8 µM [cytotoxic, partial curve] | 
60 | CNc1ccccc1C(=O)OCC(C)=O | inconclusive: 16.4 µM [rising, single point] | 
61 | N#C/C(=C/c1ccccc1OCc1ccc(F)cc1)c1ccc(C(=O)O)cc1 | inconclusive: 0.58 µM [rising, full curve, poor fit] | 
62 | O=C(COC(=O)C1CC1)Nc1ccc(Oc2ccccc2)cc1 | inconclusive: 23.1 µM [rising, single point] | 
63 | COC(=O)c1c(C)oc(C)c1S(=O)(=O)N(C)C1CCCCC1 | inconclusive: 29.1 µM [rising, single point] | 
64 | Cc1cc(C)c2c(CC(=O)Nc3ccc(S(=O)(=O)N4CCCC(C)C4)cc3)coc2c1 (stereo not drawn) | inactive | 
65 | COCCNC(=O)CSc1cc(-c2ccccc2)c2ccc(OC)cc2n1 | inconclusive: 5.8 µM [cytotoxic, partial curve, poor fit] | 
66 | CCC(C(=O)Nc1ccc(C(=O)OC)cc1)n1nc(-c2ccc(C)cc2)c2c(c1=O)CCCC2 (stereo not drawn) | inconclusive: 29.1 µM [cytotoxic, single point] | 
67 | CCC1CSC(=Nc2ccc(C)cc2)N1C(=O)CN1C(=O)NC2(CCCC2)C1=O (stereo not drawn) | inconclusive: 23.1 µM [cytotoxic, single point] | 
68 | COc1cccc(N2CCN(c3ccc(S(=O)(=O)N4CCN(C)CC4)cc3[N+](=O)[O-])CC2)c1 | inconclusive: 18.4 µM [cytotoxic, partial curve] | 
